Data taken from the supplement of paper PMC10849652.
Some of the results follow.

By UniProt entry, the sequences of proteins in these tests, tags left out. Where a name states a change or a piece, a line headed by the entry shows the natural chain unless it says otherwise.
UniProt Q53EU6: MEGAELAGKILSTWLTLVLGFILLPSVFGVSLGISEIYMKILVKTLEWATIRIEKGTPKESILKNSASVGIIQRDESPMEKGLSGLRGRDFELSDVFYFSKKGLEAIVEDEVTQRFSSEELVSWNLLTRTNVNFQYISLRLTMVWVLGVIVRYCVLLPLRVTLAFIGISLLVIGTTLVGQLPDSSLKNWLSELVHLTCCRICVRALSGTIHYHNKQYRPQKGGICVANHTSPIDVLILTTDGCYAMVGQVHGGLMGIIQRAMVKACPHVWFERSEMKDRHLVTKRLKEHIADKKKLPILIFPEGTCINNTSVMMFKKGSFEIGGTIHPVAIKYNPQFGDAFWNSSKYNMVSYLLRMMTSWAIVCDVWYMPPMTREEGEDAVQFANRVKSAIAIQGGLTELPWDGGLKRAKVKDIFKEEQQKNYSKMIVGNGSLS
UniProt P62873, whole entry, looked up: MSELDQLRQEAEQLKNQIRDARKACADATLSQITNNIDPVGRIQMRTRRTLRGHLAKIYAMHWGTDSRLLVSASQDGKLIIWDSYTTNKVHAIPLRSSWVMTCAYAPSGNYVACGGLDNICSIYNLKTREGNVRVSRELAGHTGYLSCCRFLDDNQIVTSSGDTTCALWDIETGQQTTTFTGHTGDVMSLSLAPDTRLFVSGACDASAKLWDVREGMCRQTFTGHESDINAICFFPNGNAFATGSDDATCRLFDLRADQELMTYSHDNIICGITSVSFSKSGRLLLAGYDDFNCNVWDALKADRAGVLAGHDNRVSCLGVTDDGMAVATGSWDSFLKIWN
UniProt Q14691: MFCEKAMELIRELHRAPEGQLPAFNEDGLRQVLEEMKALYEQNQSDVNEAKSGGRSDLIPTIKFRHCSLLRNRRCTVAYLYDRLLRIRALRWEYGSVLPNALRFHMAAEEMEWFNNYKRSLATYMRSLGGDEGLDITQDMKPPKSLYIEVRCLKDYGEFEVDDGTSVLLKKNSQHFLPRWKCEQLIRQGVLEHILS
UniProt Q9HAV0, whole entry, looked up: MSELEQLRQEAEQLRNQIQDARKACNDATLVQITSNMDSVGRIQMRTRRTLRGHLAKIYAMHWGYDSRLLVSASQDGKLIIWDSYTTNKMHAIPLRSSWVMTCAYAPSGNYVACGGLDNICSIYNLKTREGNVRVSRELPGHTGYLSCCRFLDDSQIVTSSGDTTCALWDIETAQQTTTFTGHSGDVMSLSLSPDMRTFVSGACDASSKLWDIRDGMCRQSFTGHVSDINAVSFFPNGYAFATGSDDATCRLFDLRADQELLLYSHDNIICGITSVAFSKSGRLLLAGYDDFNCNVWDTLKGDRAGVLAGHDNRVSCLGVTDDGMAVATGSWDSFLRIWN
UniProt Q9NQX3: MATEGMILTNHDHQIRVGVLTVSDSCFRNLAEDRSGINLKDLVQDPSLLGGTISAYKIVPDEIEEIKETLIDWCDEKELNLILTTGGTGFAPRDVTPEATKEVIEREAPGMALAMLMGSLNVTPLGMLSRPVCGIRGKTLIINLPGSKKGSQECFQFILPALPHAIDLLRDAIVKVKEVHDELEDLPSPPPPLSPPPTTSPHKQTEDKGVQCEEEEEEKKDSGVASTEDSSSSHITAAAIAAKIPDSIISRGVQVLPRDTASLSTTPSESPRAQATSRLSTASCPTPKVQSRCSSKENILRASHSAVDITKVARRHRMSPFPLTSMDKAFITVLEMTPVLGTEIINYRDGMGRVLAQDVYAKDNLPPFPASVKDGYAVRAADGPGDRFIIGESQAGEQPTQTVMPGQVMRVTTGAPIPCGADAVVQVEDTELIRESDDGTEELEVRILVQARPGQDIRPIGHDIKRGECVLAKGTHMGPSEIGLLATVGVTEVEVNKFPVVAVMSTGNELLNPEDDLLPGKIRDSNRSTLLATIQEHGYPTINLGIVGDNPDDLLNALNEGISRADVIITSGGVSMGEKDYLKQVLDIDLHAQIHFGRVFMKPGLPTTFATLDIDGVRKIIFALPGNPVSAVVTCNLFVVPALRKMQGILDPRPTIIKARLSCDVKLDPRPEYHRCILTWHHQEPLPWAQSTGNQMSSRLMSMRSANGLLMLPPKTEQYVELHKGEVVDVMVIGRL
UniProt P36915, whole entry, looked up: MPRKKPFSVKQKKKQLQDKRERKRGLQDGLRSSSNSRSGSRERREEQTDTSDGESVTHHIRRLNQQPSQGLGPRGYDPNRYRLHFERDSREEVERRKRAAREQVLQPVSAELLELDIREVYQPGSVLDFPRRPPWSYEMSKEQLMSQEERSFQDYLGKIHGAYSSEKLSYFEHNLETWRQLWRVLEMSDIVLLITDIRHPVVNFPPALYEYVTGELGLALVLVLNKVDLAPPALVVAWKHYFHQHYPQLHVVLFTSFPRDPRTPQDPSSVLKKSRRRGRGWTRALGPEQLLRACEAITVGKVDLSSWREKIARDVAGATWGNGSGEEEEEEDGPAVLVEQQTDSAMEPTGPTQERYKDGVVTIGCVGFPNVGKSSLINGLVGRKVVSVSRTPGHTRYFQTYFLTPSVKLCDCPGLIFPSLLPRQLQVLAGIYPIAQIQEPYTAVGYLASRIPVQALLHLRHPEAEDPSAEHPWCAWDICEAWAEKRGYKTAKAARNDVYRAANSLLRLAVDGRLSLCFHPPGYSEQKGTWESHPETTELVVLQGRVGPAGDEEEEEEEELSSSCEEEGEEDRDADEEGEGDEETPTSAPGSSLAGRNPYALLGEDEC
UniProt Q9BYB4: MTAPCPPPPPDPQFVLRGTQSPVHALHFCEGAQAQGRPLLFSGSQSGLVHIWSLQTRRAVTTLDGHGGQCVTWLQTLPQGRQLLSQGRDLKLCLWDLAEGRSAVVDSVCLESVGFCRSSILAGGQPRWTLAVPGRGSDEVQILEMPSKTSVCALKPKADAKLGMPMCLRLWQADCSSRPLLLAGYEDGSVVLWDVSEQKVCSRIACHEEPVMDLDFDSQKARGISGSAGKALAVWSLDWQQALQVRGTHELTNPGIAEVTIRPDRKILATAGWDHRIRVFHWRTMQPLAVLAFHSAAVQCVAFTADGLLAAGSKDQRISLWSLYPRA
UniProt O75496: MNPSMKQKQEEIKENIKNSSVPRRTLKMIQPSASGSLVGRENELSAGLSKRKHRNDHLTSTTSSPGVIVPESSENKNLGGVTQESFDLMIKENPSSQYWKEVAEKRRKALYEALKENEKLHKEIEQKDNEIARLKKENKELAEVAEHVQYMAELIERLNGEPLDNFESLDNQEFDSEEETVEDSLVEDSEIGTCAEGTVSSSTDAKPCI
UniProt O60547: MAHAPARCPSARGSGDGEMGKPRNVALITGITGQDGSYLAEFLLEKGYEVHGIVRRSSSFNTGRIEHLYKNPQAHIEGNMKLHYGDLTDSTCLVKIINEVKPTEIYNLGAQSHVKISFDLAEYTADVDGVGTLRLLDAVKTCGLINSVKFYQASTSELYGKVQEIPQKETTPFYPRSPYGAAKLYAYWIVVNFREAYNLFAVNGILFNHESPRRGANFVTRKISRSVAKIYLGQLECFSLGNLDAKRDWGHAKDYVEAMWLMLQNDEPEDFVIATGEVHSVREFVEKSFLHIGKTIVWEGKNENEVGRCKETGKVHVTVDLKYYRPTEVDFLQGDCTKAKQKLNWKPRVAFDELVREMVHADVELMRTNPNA
UniProt Q86SX6: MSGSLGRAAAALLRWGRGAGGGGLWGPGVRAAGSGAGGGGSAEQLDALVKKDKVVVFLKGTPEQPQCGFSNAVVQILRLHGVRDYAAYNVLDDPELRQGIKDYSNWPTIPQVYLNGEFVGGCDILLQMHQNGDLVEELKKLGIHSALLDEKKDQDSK
UniProt Q9BRX5: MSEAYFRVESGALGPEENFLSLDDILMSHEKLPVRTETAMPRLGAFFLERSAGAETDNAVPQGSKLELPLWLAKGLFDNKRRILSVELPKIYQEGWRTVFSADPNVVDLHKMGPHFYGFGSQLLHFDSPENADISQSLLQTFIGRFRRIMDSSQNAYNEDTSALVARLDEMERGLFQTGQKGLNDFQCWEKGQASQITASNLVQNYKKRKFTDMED
UniProt B7ZAQ6: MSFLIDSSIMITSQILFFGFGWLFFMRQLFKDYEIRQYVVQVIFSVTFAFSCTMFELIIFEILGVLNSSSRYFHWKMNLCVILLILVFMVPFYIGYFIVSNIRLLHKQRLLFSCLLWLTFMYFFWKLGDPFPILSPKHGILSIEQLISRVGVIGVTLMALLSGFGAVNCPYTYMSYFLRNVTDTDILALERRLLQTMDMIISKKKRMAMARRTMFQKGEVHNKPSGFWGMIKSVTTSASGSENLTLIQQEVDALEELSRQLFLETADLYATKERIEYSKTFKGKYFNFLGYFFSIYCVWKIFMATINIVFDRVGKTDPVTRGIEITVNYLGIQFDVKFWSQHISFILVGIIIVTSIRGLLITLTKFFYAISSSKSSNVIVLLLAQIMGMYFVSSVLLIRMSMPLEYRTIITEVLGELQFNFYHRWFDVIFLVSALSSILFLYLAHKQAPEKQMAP
UniProt Q9Y223: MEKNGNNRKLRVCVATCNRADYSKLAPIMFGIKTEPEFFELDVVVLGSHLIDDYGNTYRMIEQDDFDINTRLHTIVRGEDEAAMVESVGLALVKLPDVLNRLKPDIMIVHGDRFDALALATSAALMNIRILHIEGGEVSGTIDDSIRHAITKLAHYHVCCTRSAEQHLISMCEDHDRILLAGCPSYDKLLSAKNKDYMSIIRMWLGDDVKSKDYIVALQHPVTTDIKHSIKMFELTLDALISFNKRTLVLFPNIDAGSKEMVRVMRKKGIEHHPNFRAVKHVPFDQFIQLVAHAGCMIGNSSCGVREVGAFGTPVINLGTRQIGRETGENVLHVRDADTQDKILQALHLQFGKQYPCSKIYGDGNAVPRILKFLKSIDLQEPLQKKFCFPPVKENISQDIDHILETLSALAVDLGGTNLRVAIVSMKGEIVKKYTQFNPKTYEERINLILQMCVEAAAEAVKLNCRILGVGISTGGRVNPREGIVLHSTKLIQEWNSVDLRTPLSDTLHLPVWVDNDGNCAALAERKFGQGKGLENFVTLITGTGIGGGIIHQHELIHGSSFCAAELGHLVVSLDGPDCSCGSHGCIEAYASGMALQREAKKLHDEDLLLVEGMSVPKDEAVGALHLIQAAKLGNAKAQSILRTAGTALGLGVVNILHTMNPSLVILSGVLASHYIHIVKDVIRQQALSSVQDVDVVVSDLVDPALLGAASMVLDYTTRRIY
UniProt Q96EK6: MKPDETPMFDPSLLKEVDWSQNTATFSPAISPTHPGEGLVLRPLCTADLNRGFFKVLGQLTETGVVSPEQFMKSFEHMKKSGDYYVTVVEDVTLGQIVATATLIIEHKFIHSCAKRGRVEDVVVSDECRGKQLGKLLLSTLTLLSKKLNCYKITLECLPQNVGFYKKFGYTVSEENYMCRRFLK
UniProt Q9HC38: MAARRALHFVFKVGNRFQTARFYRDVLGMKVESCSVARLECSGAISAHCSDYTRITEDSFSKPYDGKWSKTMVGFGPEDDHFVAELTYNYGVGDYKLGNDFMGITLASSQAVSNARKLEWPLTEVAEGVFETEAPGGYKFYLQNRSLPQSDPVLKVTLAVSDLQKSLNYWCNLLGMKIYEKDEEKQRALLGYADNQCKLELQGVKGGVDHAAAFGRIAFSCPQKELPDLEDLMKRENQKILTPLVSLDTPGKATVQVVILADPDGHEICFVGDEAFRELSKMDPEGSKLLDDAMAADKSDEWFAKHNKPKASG
UniProt Q9UBQ7: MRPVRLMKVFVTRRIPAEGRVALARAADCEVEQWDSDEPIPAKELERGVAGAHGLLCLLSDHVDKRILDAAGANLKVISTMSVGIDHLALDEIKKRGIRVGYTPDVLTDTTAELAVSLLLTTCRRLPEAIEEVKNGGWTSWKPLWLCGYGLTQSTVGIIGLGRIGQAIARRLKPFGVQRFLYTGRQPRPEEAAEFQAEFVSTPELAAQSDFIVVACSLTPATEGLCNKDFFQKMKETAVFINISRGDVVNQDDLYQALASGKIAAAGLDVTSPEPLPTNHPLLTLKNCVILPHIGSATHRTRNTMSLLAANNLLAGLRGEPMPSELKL
UniProt Q9UHW5, whole entry, looked up: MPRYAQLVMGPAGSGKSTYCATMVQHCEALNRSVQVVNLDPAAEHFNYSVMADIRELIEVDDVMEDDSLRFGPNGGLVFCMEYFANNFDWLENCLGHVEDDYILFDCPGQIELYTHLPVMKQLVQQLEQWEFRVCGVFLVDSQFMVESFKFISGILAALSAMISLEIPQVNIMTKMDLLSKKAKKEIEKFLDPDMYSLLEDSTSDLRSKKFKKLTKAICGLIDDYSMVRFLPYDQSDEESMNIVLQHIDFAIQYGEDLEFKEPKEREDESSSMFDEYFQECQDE
UniProt Q9P2T1: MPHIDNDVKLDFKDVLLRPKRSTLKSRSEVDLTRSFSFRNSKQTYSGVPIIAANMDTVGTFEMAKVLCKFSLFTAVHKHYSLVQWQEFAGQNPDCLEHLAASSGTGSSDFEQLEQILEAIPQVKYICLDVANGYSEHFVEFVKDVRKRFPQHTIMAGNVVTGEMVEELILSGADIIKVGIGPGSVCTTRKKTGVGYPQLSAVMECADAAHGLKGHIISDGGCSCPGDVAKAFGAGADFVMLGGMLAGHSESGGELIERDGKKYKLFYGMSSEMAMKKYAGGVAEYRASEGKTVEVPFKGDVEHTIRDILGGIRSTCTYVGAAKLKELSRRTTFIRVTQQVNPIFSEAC

Each target was assayed with CC[C@H](C)[C@@H](C(=O)N[C@@H]([C@@H](C)O)C(=O)N[C@@H](CC(C)C)C(=O)[C@]1(CO1)C)NC(=O)[C@H]([C@@H](C)CC)N(C)C(=O)C [epoxomicin] (assay: log2 fold change, soluble protein after heating vs DMSO (PISA); higher = thermal stabilisation; K562 cells, 10 uM, 30 min; active = over 0.2 and 3.5 SD of the protein, either way, in both replicates (recomputed)).
Outline: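 K562 cells at 2×10^6 cells/mL were treated for 30 min with 10 μM compound, and aliquots were heated for 3 min over 48°C-58°C before pooling. Extraction used PBS with 0.5% NP-40 at 4°C, and soluble protein was the supernatant after 21,000xg for 90 min, measured by TMTpro 16plex LC-MS/MS with channel sums equalised. Thermal stability values, relative to control samples and from duplicates, are log2 fold changes.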

log2 fold change, inactive:
GPAT3 (UniProt Q53EU6) 0.023
GK (UniProt P32189) -0.023
GLYR1 (UniProt Q49A26) -0.074
GPATCH11 (UniProt Q8N954) 0.03
GPKOW (UniProt Q92917) -0.021
GNB1 (UniProt P62873) 0.017
GINS1 (UniProt Q14691) 0.051
GNB2 (UniProt P62879) 0.046
GNAI2 isoform 4 (UniProt P04899) 0.006
GPALPP1 (UniProt Q8IXQ4) -0.02
GMPPB isoform 2 (UniProt Q9Y5P6) -0.022
GNB4 (UniProt Q9HAV0) -0.07
GPHN isoform 2 (UniProt Q9NQX3) 0.009
GNL1 (UniProt P36915) 0.008
GSK3A (UniProt P49840) 0
GPAT4 (UniProt Q86UL3) 0.063
GIPC1 (UniProt O14908) 0.082
GNB1L (UniProt Q9BYB4) 0.057
GMNN (UniProt O75496) 0.044
GMDS (UniProt O60547) 0
GPS1 isoform 7 (UniProt Q13098) 0.033
GINS4 (UniProt Q9BRT9) 0.038
GM2A (UniProt P17900) 0.228
GLRX5 (UniProt Q86SX6) 0.059
GINS3 (UniProt Q9BRX5) 0.075
GNPDA1 (UniProt P46926) -0.025
GMEB2 (UniProt Q9UKD1) 0.156
GPN1 isoform 5 (UniProt Q9HCN4) -0.011
GPR89A (UniProt B7ZAQ6) 0.08
GINS2 (UniProt Q9Y248) 0.014
GOLGA5 (UniProt Q8TBA6) 0.021
GNE isoform 2 (UniProt Q9Y223) 0.016
GNPNAT1 (UniProt Q96EK6) 0.029
GLOD4 isoform 2 (UniProt Q9HC38) 0.019
GRHPR (UniProt Q9UBQ7) 0.009
GPN3 isoform 2 (UniProt Q9UHW5) -0.028
GLRX2 isoform 2 (UniProt Q9NS18) 0.067
GMPR2 isoform 2 (UniProt Q9P2T1) 0.012
GRSF1 (UniProt Q12849) 0.143
GRB2 (UniProt P62993) 0.03

As a short view, some entries already given.
log2 fold change, inactive:
GNB1 (UniProt P62873) 0.017
GINS1 (UniProt Q14691) 0.051
